From the supplement of paper PMC12873370
This is one part of the list. Many values rest on one well or one pass, so single values are uncertain.

Tests used:
[1] = test system: MEPP (mouse ovarian epithelium Trp53/Pten KO); assay: cell viability relative to untreated (fraction); higher = less growth inhibition; settings: 5 µM; 3 days
[2] = test system: PREPP (mouse prostate epithelium Trp53/Pten KO); assay: as above; settings: 5 µM; 3 days

| Structure (SMILES) | cell viability [1] | cell viability [2] |
| --- | --- | --- |
| O=C(/C=C/C=C/c1ccc2c(c1)OCO2)N1CCCCC1 | 0.971 | 0.978 |
| COc1cc(NS(C)(=O)=O)ccc1Nc1c2ccccc2nc2ccccc12 | 0.629 | 0.73 |
| NC(=O)CCCCC1CCSS1 (centres undefined) | 0.725 | 1.06 |
| COc1ccccc1OCC(O)CN1CCN(CC(=O)Nc2c(C)cccc2C)CC1 (centres undefined) | 1.17 | 1.13 |
| CCCCc1oc2ccc(NS(C)(=O)=O)cc2c1C(=O)c1ccc(OCCCN(CCCC)CCCC)cc1 | 1.07 | 0.878 |
| COc1ccc(-c2cc(=O)c3c(O)cc(O[C@@H]4O[C@H](CO[C@@H]5O[C@@H](C)[C@H](O)[C@@H](O)[C@H]5O)[C@@H](O)[C@H](O)[C@H]4O)cc3o2)cc1O | 0.875 | 1.18 |
| CC(S)C(=O)NCC(=O)O (centres undefined) | 1.06 | 1.05 |
| CCCCCCCCCCCCCCCCCCC(=O)OC | 0.884 | 0.812 |
| COc1c(C)c2c(c(O)c1C/C=C(\C)CCC(=O)OCCN1CCOCC1)C(=O)OC2 | 0.564 | 0.619 |
| O=C[C@H](O)[C@H]1OC(=O)[C@@H](O)[C@H]1O | 1.53 | 0.96 |
| CO[C@H]1/C=C/O[C@@]2(C)Oc3c(C)c(O)c4c(O)c(c(/C=N/N5CCN(C)CC5)c(O)c4c3C2=O)NC(=O)/C(C)=C\C=C\[C@H](C)[C@H](O)[C@@H](C)[C@@H](O)[C@@H](C)[C@H](OC(C)=O)[C@@H]1C | 0.906 | 0.844 |
| [O-][n+]1cccc(CO)c1 | 1.22 | 1.03 |
| C[C@H]1O[C@@H](O[C@H]2[C@@H](O)C[C@H](O[C@H]3[C@@H](O)C[C@H](O[C@H]4CC[C@@]5(C)[C@H](CC[C@@H]6[C@@H]5C[C@@H](O)[C@]5(C)[C@@H](C7=CC(=O)OC7)CC[C@]65O)C4)O[C@@H]3C)O[C@@H]2C)C[C@H](O)[C@@H]1O | 0.88 | 0.854 |
| O=C(/C=C/c1ccc(O)cc1)C1=C(O)C(O)([C@@H]2O[C@H](CO)[C@@H](O)[C@H](O)[C@H]2O)C(O)=C([C@@H]2O[C@H](CO)[C@@H](O)[C@H](O)[C@H]2O)C1=O (some centres undefined) | 1.24 | 1.07 |
| O=C(O)C(O)O | 0.814 | 1.1 |
| COc1cc2c(cc1OC)[C@@H]1Cc3ccc(OC)c(OC)c3CN1CC2 | 0.927 | 1.09 |
| Nc1ccc(S(=O)(=O)NC(=O)c2ccccc2)cc1 | 0.973 | 1.02 |
| CC1=C(C/C=C(\C)CCC[C@H](C)CCC[C@H](C)CCCC(C)C)C(=O)c2ccccc2C1=O | 0.823 | 0.888 |
| COc1c(O)c(OC)c(/C=C/c2ccc(O)cc2)c(OC)c1O | 0.929 | 0.879 |
| C=CCCC(=O)O | 1.01 | 0.732 |
| COc1ccc(-c2cc(=O)c3c(O)c(OC)c(O)cc3o2)cc1OC | 0.814 | 0.865 |
| CC(Cc1ccc(O)c(O)c1)C(C)Cc1ccc(O)c(O)c1 (centres undefined) | 1.13 | 0.8 |

Looked up by compound from the entries so far (two):

| Structure (SMILES) | cell viability [1] | cell viability [2] |
| --- | --- | --- |
| C[C@H]1O[C@@H](O[C@H]2[C@@H](O)C[C@H](O[C@H]3[C@@H](O)C[C@H](O[C@H]4CC[C@@]5(C)[C@H](CC[C@@H]6[C@@H]5C[C@@H](O)[C@]5(C)[C@@H](C7=CC(=O)OC7)CC[C@]65O)C4)O[C@@H]3C)O[C@@H]2C)C[C@H](O)[C@@H]1O | 0.88 | 0.854 |
| CO[C@H]1/C=C/O[C@@]2(C)Oc3c(C)c(O)c4c(O)c(c(/C=N/N5CCN(C)CC5)c(O)c4c3C2=O)NC(=O)/C(C)=C\C=C\[C@H](C)[C@H](O)[C@@H](C)[C@@H](O)[C@@H](C)[C@H](OC(C)=O)[C@@H]1C | 0.906 | 0.844 |
